{
  "source": "PubChem BioAssay AID504467",
  "about": "(National Center for Advancing Translational Sciences (NCATS), 2011)",
  "note": "Out of some 330,000 compounds screened, about 7,700 (2.3%) were called active. The inconclusive results got no clear call from the source; some entries with a clear call stand among them for comparison. The call rests on the fitted dose curve; in most records, active means well fitted inhibition curve with a large enough effect; inconclusive means small, poorly fitted or top-dose-only effect, or effect the other way; inactive means flat fitted curve, though single readings scatter. Where the call is inconclusive, the potency comes from a doubtful curve fit. On the % scale 0 is the no-effect control and ±100 the full control effect; potency means the concentration at half of the fitted maximal effect.",
  "data": [
    {"experiment": "qHTS screen for small molecules that inhibit ELG1-dependent DNA repair in human embryonic kidney (HEK293T) cells expressing luciferase-tagged ELG1; further: nearly all actives have a fitted effect of over 55% in size", "details": "HEK293T ELG1-luciferase reporter, luminescence, 16 h, DNA damage induced by 5-fluorouridine; activity change, negative = inhibition: at 46.1 µM (top of the series)", "in_short": "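Step one: seed 2,000 cells per well. Step two: pin-transfer compound or DMSO alongside 5-fluorouridine. Step three: incubate 16 hr, 37 °C, 5% CO2. Step four: add ONE-Glo, wait 30 min, read luminescence.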", "values": [
      {"smiles": "COc1cccc(CCC(=O)N2CCC(n3nccc3NC(=O)CC(C)C)CC2)c1", "activity change, negative = inhibition": "inactive: 11.6%"},
      {"smiles": "Clc1cccc(-c2nc3nc4ccccc4nc3n2Cc2ccccc2)c1", "Potency": "inconclusive: 9.2 µM [inhibitor, single point]"},
      {"smiles": "S=C1NC2=C(CCCC2=C2SCCS2)C(c2ccccc2)N1", "note": "(centres undefined)", "Potency": "inconclusive: 29.1 µM [activator, single point]"},
      {"smiles": "COC(=O)CSc1ccc(S(=O)(=O)N2CCCCCC2)cc1[N+](=O)[O-]", "Potency": "active: 10.3 µM"},
      {"smiles": "CCN1CCN(C(=O)CCc2nnc(CCc3c[nH]c4ccccc34)o2)[C@@H](C)C1=O", "activity change, negative = inhibition": "inactive: 1.41%"},
      {"smiles": "Cc1ccc(NC(=O)C=NOCC(=O)Nc2cc(C)cc(C)c2)cc1", "activity change, negative = inhibition": "inactive: 29.4%"},
      {"smiles": "CCCCOc1ccc(N=Cc2ccc[nH]2)cc1", "Potency": "inconclusive: 29.1 µM [activator, partial curve, poor fit]"},
      {"smiles": "CCN(CC)CCCNc1nc(-n2nc(C)cc2C)nc2sc3c(c12)CC(C)(C)OC3", "Potency": "inconclusive: 18.3 µM [activator, single point]"},
      {"smiles": "COc1ccc2c(c1)C(=NNc1ccc(C(=O)O)cc1)c1cc(OC)ccc1-2", "Potency": "inconclusive: 0.461 µM [inhibitor, full curve]"},
      {"smiles": "COc1cccc(NC(=O)CN(C)C(=O)c2ccc(-c3ccccc3Cl)o2)c1", "activity change, negative = inhibition": "inactive: -2.04%"},
      {"smiles": "S=c1nc(-c2ccccc2)n(Cc2ccco2)c2c1CCCC2", "activity change, negative = inhibition": "inactive: -1.68%"},
      {"smiles": "Cc1cccc2sc(N(CCCN(C)C)C(=O)c3ccc(C(=O)c4ccccc4)cc3)nc12", "activity change, negative = inhibition": "inactive: -10%"},
      {"smiles": "COc1cc(OC)c(C(=O)OCC(=O)NC2CCCCCCC2)cc1OC", "Potency": "inconclusive: 16.4 µM [inhibitor, partial curve]"},
      {"smiles": "Nn1c(Cc2cccc3ccccc23)n[nH]c1=S", "activity change, negative = inhibition": "inactive: -7.14%"},
      {"smiles": "CN(C)S(=O)(=O)Oc1ccsc1C(=O)Nc1cccc(Cl)c1", "Potency": "inconclusive: 29.1 µM [inhibitor, single point]"},
      {"smiles": "Cn1c(-c2c(N)n(C3CCCC3)c3nc4ccccc4nc23)nc2ccccc21", "Potency": "inconclusive: 8.2 µM [inhibitor, partial curve]"},
      {"smiles": "O=C(O)c1ccccc1OCC1CCCO1", "note": "(centres undefined)", "Potency": "inconclusive: 18.3 µM [activator, partial curve, poor fit]"},
      {"smiles": "COc1cccc(C2=CC(=O)C[C@H](c3ccc4c(c3)OCO4)C2)c1", "Potency": "inconclusive: 29.1 µM [inhibitor, single point]"},
      {"smiles": "Cc1cnc(NC(=O)CC2CCCC2)s1", "Potency": "inconclusive: 18.3 µM [activator, partial curve]"},
      {"smiles": "CCCC1(c2ccccc2)NC(=O)N(CC(=O)c2[nH]c(C)c(C(=O)OCC)c2C)C1=O", "note": "(centres undefined)", "Potency": "active: 18.4 µM"},
      {"smiles": "Cc1cc(C)c(/C=N/NC(=O)c2nnn(-c3nonc3N)c2CN2CCC(C)CC2)c(C)c1", "Potency": "inconclusive: 10.3 µM [inhibitor, partial curve]"},
      {"smiles": "C=CCc1ccc(OCc2ccc(C(=O)Nc3ccc(NC(C)=O)cc3)o2)c(OC)c1", "Potency": "inconclusive: 2.31 µM [activator, full curve]"},
      {"smiles": "Cc1ccc(Nc2cc(C)c3c(O)cccc3n2)cc1C", "Potency": "inconclusive: 18.3 µM [activator, partial curve]"},
      {"smiles": "CCCOc1ccc(C(=O)NNC(=S)NC(=O)c2cccs2)cc1", "Potency": "inconclusive: 29.1 µM [activator, single point]"},
      {"smiles": "CC(C)(C)c1ccc(S(=O)(=O)N2CCCCC2C(=O)NCc2ccccn2)cc1", "note": "(centres undefined)", "Potency": "inconclusive: 29.1 µM [inhibitor, single point]"},
      {"smiles": "CC(=O)Nc1cccc(NC(=O)c2ccc(C(=O)Nc3cccc(NC(C)=O)c3)nc2)c1", "Potency": "inconclusive: 20.6 µM [activator, partial curve]"},
      {"smiles": "Nc1c(-c2ccccc2)c(CSc2nc3ccccc3[nH]2)nn1-c1ccc(Cl)cc1", "Potency": "active: 6.51 µM"},
      {"smiles": "COc1ccc(CCC(=O)Nc2ccc(OC)c(S(=O)(=O)N3CCCCC3)c2)cc1", "Potency": "inconclusive: 20.6 µM [inhibitor, partial curve]"},
      {"smiles": "NC(=O)C1CCN(C(=O)CCCCCn2c(=O)[nH]c3ccsc3c2=O)CC1", "Potency": "inconclusive: 29.1 µM [activator, partial curve, poor fit]"},
      {"smiles": "Cc1occc1C(=O)Nc1sccc1C(N)=O", "Potency": "inconclusive: 20.6 µM [activator, single point]"},
      {"smiles": "Cc1ccc(C(=O)Nc2cccc3cccnc23)cc1C", "Potency": "inconclusive: 23.1 µM [activator, partial curve]"},
      {"smiles": "O=C(O)c1ccccc1Nc1ccc(OC(F)F)cc1", "Potency": "inconclusive: 29.1 µM [activator, single point]"},
      {"smiles": "OC1c2cc(Br)ccc2N=C2CCCN21", "note": "(centres undefined)", "Potency": "inconclusive: 23.1 µM [inhibitor, partial curve, poor fit]"},
      {"smiles": "CN(Cc1ccccc1)S(=O)(=O)c1cccc(C(=O)O)c1", "Potency": "inconclusive: 0.58 µM [inhibitor, full curve]"},
      {"smiles": "COCCN(C(=O)c1ccc(N2C(=O)c3ccccc3C2=O)cc1)c1c(N)n(CC(C)C)c(=O)[nH]c1=O", "activity change, negative = inhibition": "inactive: 1.81%"},
      {"smiles": "Cn1nc(C(=O)NC2=NCCS2)ccc1=O", "activity change, negative = inhibition": "inactive: 15%"},
      {"smiles": "Cc1ccc(/C=C/c2ccc3cccc(O)c3n2)s1", "Potency": "inconclusive: 16.4 µM [activator, partial curve]"},
      {"smiles": "O=C1c2ccccc2-c2nc3ncnn3c(-c3ccccc3Cl)c21", "Potency": "inconclusive: 20.6 µM [inhibitor, single point]"},
      {"smiles": "CCn1c(=O)c2ccccc2n2c(SCC(=O)N3CCc4ccccc4C3)nnc12", "activity change, negative = inhibition": "inactive: -24.6%"},
      {"smiles": "N#Cc1c(N)n(-c2ccc(O)cc2)c2nc3ccccc3nc12", "Potency": "inconclusive: 0.164 µM [activator, partial curve, poor fit]"},
      {"smiles": "CC(=NCc1ccncc1)C1=C(O)c2ccccc2C1=O", "Potency": "inconclusive: 18.4 µM [activator, single point]"},
      {"smiles": "CCc1cccc(OCC2Cn3c(nc4c3c(=O)n(C)c(=O)n4C)O2)c1", "note": "(centres undefined)", "Potency": "inconclusive: 29.1 µM [inhibitor, single point]"},
      {"smiles": "c1ccc(CCNc2nc(-c3ccncc3)cs2)cc1", "Potency": "inconclusive: 29.1 µM [inhibitor, single point]"},
      {"smiles": "CCCCCCCCCCOC(=O)Cn1c(COc2ccc(C)cc2)[n+](C)c2ccccc21", "Potency": "inconclusive: 23.1 µM [inhibitor, single point]"}
    ]}
  ]
}
